Results from PMC4598982, “Impact of Cell-surface Antigen Expression on Target Engagement and Function of an Epidermal Growth Factor Receptor × c-MET Bispecific Antibody*” (The Journal of Biological Chemistry, 2015).
These are yes or no findings as the source states them, for the method shown. Binding seen in cells or lysates may run through a third protein.

Target: c-MET(1–960) C-terminally fused to a complementary inactive fragment of β-galactosidase (UniProt P08581)
Assay: condition: only with EGF, EGFR only Abs or BsAbs and without HGF; split reporter; PathHunter enzyme fragment complementation in the c-MET homodimer U-2 OS cell line; EGF, EGFR only Abs or BsAbs in place of HGF; 6 h at room temperature

B1: c-MET(1–960) C-terminally fused to a complementary inactive fragment of β-galactosidase (receptor, UniProt P08581 25-960, looked up)
chain: ECKEALAKSEMNVNMKYQLPNFTAETPIQNVILHEHHIFLGATNYIYVLNEEDLQKVAEYKTGPVLEHPDCFPCQDCSSKANLSGGVWKDNINMALVVDTYYDDQLISCGSVNRGTCQRHVFPHNHTADIQSEVHCIFSPQIEEPSQCPDCVVSALGAKVLSSVKDRFINFFVGNTINSSYFPDHPLHSISVRRLKETKDGFMFLTDQSYIDVLPEFRDSYPIKYVHAFESNNFIYFLTVQRETLDAQTFHTRIIRFCSINSGLHSYMEMPLECILTEKRKKRSTKKEVFNILQAAYVSKPGAQLARQIGASLNDDILFGVFAQSKPDSAEPMDRSAMCAFPIKYVNDFFNKIVNKNNVRCLQHFYGPNHEHCFNRTLLRNSSGCEARRDEYRTEFTTALQRVDLFMGQFSEVLLTSISTFIKGDLTIANLGTSEGRFMQVVVSRSGPSTPHVNFLLDSHPVSPEVIVEHTLNQNGYTLVITGKKITKIPLNGLGCRHFQSCSQCLSAPPFVQCGWCHDKCVRSEECLSGTWTQQICLPAIYKVFPNSAPLEGGTRLTICGWDFGFRRNNKFDLKKTRVLLGNESCTLTLSESTMNTLKCTVGPAMNKHFNMSIIISNGHGTTQYSTFSYVDPVITSISPKYGPMAGGTLLTLTGNYLNSGNSRHISIGGKTCTLKSVSNSILECYTPAQTISTEFAVKLKIDLANRETSIFSYREDPIVYEIHPTKSFISGGSTITGVGKNLNSVSVPRMVINVHEAGRNFTVACQHRSNSEIICCTTPSLQQLNLQLPLKTKAFFMLDGILSKYFDLIYVHNPVFKPFEKPVMISMGNENVLEIKGNDIDPEAVKGEVLKVGNKSCENIHLHSEAVLCTVPNDLLKLNSELNIEWKQAISSTVLGKVIVQPDQNFTGLIAGVVSISTALLLLLGFFLWLKKRKQ
notes: signal peptide in the construct; membrane localisation of the construct was checked by flow cytometry; In the homodimer cell line two copies carry the two complementary β-gal fragments; also called hepatocyte growth factor receptor; HGF receptor; source: U-2 OS cells, stably transfected, on cells
B1 was tested, and the binding was “no binding”.
